Measurements reported in PubChem BioAssay AID504467 (National Center for Advancing Translational Sciences (NCATS), 2011).
Among all 330,000 compounds or so, about 7,700 (2.3%) were called active. The inconclusive results got no clear call from the source; some entries with a clear call stand among them for comparison. Calls follow the shape of the dose curve; as a rule, active = well fitted inhibition curve with a large enough effect; inconclusive = small, poorly fitted or top-dose-only effect, or effect the other way; inactive = flat fitted curve, though single readings scatter. Potencies beside an inconclusive call are fits to weak or partial responses and may not hold up.
Potency is read from the fitted curve at half-maximal effect.

Assay: qHTS screen for small molecules that inhibit ELG1-dependent DNA repair in human embryonic kidney (HEK293T) cells expressing luciferase-tagged ELG1; also: nearly all actives have a fitted effect of over 55% in size
Conditions: HEK293T ELG1-luciferase reporter, luminescence, 16 h, DNA damage induced by 5-fluorouridine; series mostly up to 46.1 µM
In short: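 5-Fluorouridine DNA damage + compound/DMSO, 2,000 cells/well, 16 h, 37 °C/5% CO2. ONE-Glo, 30 min RT, luminescence. Readout = decrease in reporter signal.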
For CC(C)(C)C1CCC2(CC1)SCC(=O)N2c1ccccc1 (stereo not drawn), the Potency was “inactive”. In the case of O=C(COC(=O)c1ccc(Cl)nc1)Nc1ccccc1OC(F)F, the Potency is reported as “inactive”. With Cc1cc(O)c(NC(=O)c2ccc(Br)o2)cc1C the Potency was inconclusive: 13 µM [activator, partial curve]. In the case of Clc1ccc(-c2noc(CN3CCCC3)n2)cc1, the Potency is reported as inconclusive: 11.6 µM [activator, partial curve]. In the case of COc1ccc(Cl)cc1NC(=O)Nc1cccc([N+](=O)[O-])c1C, the Potency is reported as inconclusive: 18.4 µM [inhibitor, single point]. For NNc1nc(-c2ccccc2)cs1, the Potency was “inactive”. For CCc1sc(C(C2C(=O)CC(C)(C)CC2=O)C2C(=O)CC(C)(C)CC2=O)cc1[N+](=O)[O-], the Potency was inconclusive: 29.1 µM [activator, single point]. For Cc1oc(S(=O)(=O)N2CCCC2)cc1C(=O)Nc1ccccc1, the Potency was inconclusive: 11.6 µM [inhibitor, partial curve, poor fit]. For O=C(CNC(=O)c1ccccc1)OCCOc1cccc(Cl)c1, the Potency was inconclusive: 25.9 µM [activator, single point]. For O=C(COC(=O)Cc1ccccc1F)Nc1ccc(SC(F)F)cc1, the Potency was “inactive”. For CCOc1ccc2nc(N3CCC(C(=O)Nc4nnc(CC)s4)CC3)sc2c1, the Potency was inconclusive: 3.66 µM [activator, partial curve]. With Cc1nnc(SCC(=O)N2CCOCC2)c2ccccc12 the Potency was “inactive”. For COc1ccc2nc(N/C(N)=N/C(=S)Nc3cccc(C)c3)nc(C)c2c1, the Potency was inconclusive: 18.4 µM [inhibitor, single point]. With CCc1cccc(CC)c1NC(=O)C[n+]1cccc(C(N)=O)c1 the Potency was “inactive”. For CC(=O)c1ccc(NC(=O)/C(=C\c2ccco2)NC(=O)c2ccco2)cc1, the Potency was “inactive”. With CCOc1ccc(C(=O)Nc2ccc(Cl)cn2)cc1Cl the Potency was inconclusive: 3.66 µM [activator, full curve]. In the case of COc1ccccc1CNC(=O)C(C)c1ccc([N+](=O)[O-])cc1 (stereo not drawn), the Potency is reported as “inactive”. With Fc1ccc(Sc2nc(-c3ccccc3)nnc2C(F)(F)F)cc1 the Potency was inconclusive: 16.4 µM [inhibitor, partial curve]. With CS(=O)(=O)c1ccc2nc(NC(=O)c3cc(-c4ccccc4)nn3-c3ccccc3)sc2c1 the Potency was active: 7.31 µM. With O=C1C(Cc2ccc(O)cc2)NC(=S)N1Cc1ccccc1 (stereo not drawn) the Potency was “inactive”. For Cc1cc(C(=O)COc2cccnc2[N+](=O)[O-])c(C)n1-c1ccccc1, the Potency was inconclusive: 3.26 µM [activator, full curve]. For O=C(OCc1c(-c2ccccc2)ncc2ccccc12)c1ccc(Br)cc1, the Potency was inconclusive: 2.91 µM [inhibitor, partial curve, poor fit]. With COc1ccc(C(=O)Nc2cccc(-c3nc4ncccc4o3)c2C)cc1 the Potency was “inactive”. With CC(C)C(C(=O)NCC1CCCO1)N(C(=O)CNS(=O)(=O)c1ccc(F)cc1)C1CCCCC1 (stereo not drawn) the Potency was inconclusive: 8.2 µM [inhibitor, partial curve, poor fit]. With CCN(CC)S(=O)(=O)c1ccc(C)c(NC(=O)CSc2nc3ccc(C)cc3[nH]2)c1 the Potency was inconclusive: 29.1 µM [inhibitor, single point]. With O=C(Cc1ccccc1F)Nc1nc(-c2cccs2)cs1 the Potency was inconclusive: 18.4 µM [activator, single point]. In the case of Cc1ccc(NC(=O)C(C)N=C2NS(=O)(=O)c3ccccc32)cc1F (stereo not drawn), the Potency is reported as inconclusive: 23.1 µM [activator, partial curve]. For COc1cc(/C=N/n2c(-c3ccccc3)n[nH]c2=S)cc(OC)c1OC, the Potency was active: 4.11 µM. In the case of Cc1ccc(S(=O)(=O)N(C)C)cc1NC(=S)N1CCc2ccccc21, the Potency is reported as inconclusive: 29.1 µM [inhibitor, single point]. For COCCn1c(=O)[nH]c(=O)c2c1nc(-c1ccc(-c3ccc(Cl)cc3[N+](=O)[O-])o1)n2Cc1ccccc1, the Potency was active: 13 µM. In the case of Cc1cccc(N2CCN(CCNC(=O)c3cc4c(s3)CS(=O)(=O)C4)CC2)c1C, the Potency is reported as inconclusive: 9.2 µM [inhibitor, partial curve]. In the case of CC1(C)CC(=O)C/C(=N/Nc2nc3ccccc3s2)C1, the Potency is reported as inconclusive: 9.2 µM [activator, partial curve]. In the case of CCOC(=O)N1CCN(Cc2nc3cc(NC(=O)CC)ccc3n2C)CC1, the Potency is reported as “inactive”. With CC(C)C(=O)Nc1cccc(C(=O)N2CCCCC2C)c1 (stereo not drawn) the Potency was “inactive”. With NNC(=O)c1cc(-c2ccccc2)sc1N the Potency was “inactive”. For O=C1CCCC/C=C\C[C@H](CC(=O)N(CCO)Cc2ccccc2)C(=O)NCCO1, the Potency was “inactive”. With O=C(Nc1ccccc1)N1N=C(c2cccs2)CC1c1cccs1 (stereo not drawn) the Potency was “inactive”. In the case of Cc1cc2cc(C(=O)N3CCc4c([nH]c5ccccc45)C3c3ccccn3)ccc2o1 (stereo not drawn), the Potency is reported as inconclusive: 18.3 µM [inhibitor, single point].
